Among the data in paper doi:10.1101/2022.06.19.496727 are binding values, retold here.

Like-named read-outs stand apart in the source and are kept apart here. These are yes or no findings as the source states them, for the method shown. Some results given as binding are weak or reduced against the parent protein; the word gives no strength. Tags and fused reporters may be left off the sequences shown.

What all share (experiment): cross-linking
The target of test [1] is T1, 8His-Smc3 R1222C (engaged-heads reporter cysteine, wild type trimer) (S. cerevisiae) (UniProt P47037).
T1 sequence: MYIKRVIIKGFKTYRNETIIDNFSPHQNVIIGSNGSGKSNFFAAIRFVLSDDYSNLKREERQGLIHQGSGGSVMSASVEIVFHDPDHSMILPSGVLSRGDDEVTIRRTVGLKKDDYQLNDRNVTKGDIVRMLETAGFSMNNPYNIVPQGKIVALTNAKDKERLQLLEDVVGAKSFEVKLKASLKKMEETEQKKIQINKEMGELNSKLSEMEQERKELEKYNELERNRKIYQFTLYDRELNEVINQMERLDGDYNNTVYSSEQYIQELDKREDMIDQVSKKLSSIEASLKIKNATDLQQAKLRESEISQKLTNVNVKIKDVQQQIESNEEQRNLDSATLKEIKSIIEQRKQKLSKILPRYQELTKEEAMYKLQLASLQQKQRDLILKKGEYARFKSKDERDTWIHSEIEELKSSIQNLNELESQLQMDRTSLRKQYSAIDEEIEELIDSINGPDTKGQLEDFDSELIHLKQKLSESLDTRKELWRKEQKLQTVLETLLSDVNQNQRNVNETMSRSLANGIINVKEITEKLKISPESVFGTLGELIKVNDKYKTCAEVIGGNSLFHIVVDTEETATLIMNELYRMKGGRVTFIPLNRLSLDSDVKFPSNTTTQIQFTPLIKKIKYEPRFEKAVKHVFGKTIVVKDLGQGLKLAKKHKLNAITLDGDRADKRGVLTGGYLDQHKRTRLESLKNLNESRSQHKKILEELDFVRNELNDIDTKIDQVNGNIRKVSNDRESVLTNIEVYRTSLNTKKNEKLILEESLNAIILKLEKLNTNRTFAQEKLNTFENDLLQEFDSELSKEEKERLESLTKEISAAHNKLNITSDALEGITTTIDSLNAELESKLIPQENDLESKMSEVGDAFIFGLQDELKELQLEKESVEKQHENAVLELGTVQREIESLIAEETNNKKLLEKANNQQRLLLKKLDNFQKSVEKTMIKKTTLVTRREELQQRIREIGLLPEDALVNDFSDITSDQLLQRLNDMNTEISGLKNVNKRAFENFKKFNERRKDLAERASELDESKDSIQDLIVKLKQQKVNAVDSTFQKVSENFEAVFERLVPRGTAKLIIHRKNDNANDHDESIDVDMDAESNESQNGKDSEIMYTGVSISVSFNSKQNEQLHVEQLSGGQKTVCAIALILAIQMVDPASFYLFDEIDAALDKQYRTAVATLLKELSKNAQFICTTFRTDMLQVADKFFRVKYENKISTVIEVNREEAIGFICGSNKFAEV

Test [2] concerns the target T2, 8His-Smc3 K198C (zipped-up reporter cysteine, wild type trimer) (S. cerevisiae) (UniProt P47037).
T2 sequence: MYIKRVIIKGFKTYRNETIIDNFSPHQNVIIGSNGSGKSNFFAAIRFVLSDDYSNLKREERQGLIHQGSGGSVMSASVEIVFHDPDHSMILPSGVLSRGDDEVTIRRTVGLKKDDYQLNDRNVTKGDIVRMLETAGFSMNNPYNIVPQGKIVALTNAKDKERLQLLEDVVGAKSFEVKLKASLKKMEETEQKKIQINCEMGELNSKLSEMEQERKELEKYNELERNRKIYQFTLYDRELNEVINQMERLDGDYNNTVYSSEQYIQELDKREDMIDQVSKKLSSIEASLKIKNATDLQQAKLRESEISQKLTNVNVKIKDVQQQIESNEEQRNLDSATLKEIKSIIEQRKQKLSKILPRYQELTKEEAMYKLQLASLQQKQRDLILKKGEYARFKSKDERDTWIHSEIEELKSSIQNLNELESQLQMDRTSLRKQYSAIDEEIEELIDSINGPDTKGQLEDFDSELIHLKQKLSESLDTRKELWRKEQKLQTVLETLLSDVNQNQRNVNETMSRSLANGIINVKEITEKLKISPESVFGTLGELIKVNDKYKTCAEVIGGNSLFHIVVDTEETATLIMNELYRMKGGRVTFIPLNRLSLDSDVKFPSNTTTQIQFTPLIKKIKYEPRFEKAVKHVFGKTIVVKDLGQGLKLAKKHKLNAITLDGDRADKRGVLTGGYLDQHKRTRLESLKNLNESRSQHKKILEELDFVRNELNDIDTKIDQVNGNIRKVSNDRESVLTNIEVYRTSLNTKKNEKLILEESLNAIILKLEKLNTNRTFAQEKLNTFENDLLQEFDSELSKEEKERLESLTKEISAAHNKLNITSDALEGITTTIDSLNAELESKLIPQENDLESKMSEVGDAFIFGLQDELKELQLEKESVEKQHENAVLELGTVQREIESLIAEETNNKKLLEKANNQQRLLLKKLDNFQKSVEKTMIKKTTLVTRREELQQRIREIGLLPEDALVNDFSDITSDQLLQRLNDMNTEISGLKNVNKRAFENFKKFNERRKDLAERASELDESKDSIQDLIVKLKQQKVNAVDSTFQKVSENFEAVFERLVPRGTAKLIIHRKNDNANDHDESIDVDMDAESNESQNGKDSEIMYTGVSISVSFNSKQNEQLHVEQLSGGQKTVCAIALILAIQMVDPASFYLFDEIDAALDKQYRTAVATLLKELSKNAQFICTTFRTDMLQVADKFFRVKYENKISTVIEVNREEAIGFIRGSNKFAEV

For test [3], the target named is T2, 8His-Smc3 K198C (zipped-up reporter cysteine, wild type trimer) (S. cerevisiae). The source holds these as a separate data set.

B1: Smc1 N1192C (engaged-heads reporter cysteine, wild type trimer) (protein, UniProt P32908 1-1225)
chain: MGRLVGLELSNFKSYRGVTKVGFGESNFTSIIGPNGSGKSNMMDAISFVLGVRSNHLRSNILKDLIYRGVLNDENSDDYDNEGAASSNPQSAYVKAFYQKGNKLVELMRIISRNGDTSYKIDGKTVSYKDYSIFLENENILIKAKNFLVFQGDVEQIAAQSPVELSRMFEEVSGSIQYKKEYEELKEKIEKLSKSATESIKNRRRIHGELKTYKEGINKNEEYRKQLDKKNELQKFQALWQLYHLEQQKEELTDKLSALNSEISSLKGKINNEMKSLQRSKSSFVKESAVISKQKSKLDYIFKDKEKLVSDLRLIKVPQQAAGKRISHIEKRIESLQKDLQRQKTYVERFETQLKVVTRSKEAFEEEIKQSARNYDKFKLNENDLKTYNCLHEKYLTEGGSILEEKIAVLNNDKREIQEELERFNKRADISKRRITEELSITGEKLDTQLNDLRVSLNEKNALHTERLHELKKLQSDIESANNQEYDLNFKLRETLVKIDDLSANQRETMKERKLRENIAMLKRFFPGVKGLVHDLCHPKKEKYGLAVSTILGKNFDSVIVENLTVAQECIAFLKKQRAGTASFIPLDTIETELPTLSLPDSQDYILSINAIDYEPEYEKAMQYVCGDSIICNTLNIAKDLKWKKGIRGKLVTIEGALIHKAGLMTGGISGDANNRWDKEEYQSLMSLKDKLLIQIDELSNGQRSNSIRAREVENSVSLLNSDIANLRTQVTQQKRSLDENRLEIKYHNDLIEKEIQPKITELKKKLDDLENTKDNLVKEKEALQNNIFKEFTSKIGFTIKEYENHSGELMRQQSKELQQLQKQILTVENKLQFETDRLSTTQRRYEKAQKDLENAQVEMKSLEEQEYAIEMKIGSIESKLEEHKNHLDELQKKFVTKQSELNSSEDILEDMNSNLQVLKRERDGIKEDIEKFDLERVTALKNCKISNINIPISSETTIDDLPISSTDNEAITISNSIDINYKGLPKKYKENNTDSARKELEQKIHEVEEILNELQPNARALERYDEAEGRFEVINNETEQLKAEEKKILNQFLKIKKKRKELFEKTFDYVSDHLDAIYRELTKNPNSNVELAGGNASLTIEDEDEPFNAGIKYHATPPLKRFKDMEYLSGGEKTVAALALLFAINSYQPSPFFVLDEVDAALDITNVQRIAAYIRRHRNPDLQFIVISLKCTMFEKSDALVGVYRQQQENSSKIITLDLSNYAE
Take B1: in test [1], the binding result is “binds”.

B2: Smc1 K201C (zipped-up reporter cysteine, wild type trimer) (protein, UniProt P32908 1-1225)
chain: MGRLVGLELSNFKSYRGVTKVGFGESNFTSIIGPNGSGKSNMMDAISFVLGVRSNHLRSNILKDLIYRGVLNDENSDDYDNEGAASSNPQSAYVKAFYQKGNKLVELMRIISRNGDTSYKIDGKTVSYKDYSIFLENENILIKAKNFLVFQGDVEQIAAQSPVELSRMFEEVSGSIQYKKEYEELKEKIEKLSKSATESICNRRRIHGELKTYKEGINKNEEYRKQLDKKNELQKFQALWQLYHLEQQKEELTDKLSALNSEISSLKGKINNEMKSLQRSKSSFVKESAVISKQKSKLDYIFKDKEKLVSDLRLIKVPQQAAGKRISHIEKRIESLQKDLQRQKTYVERFETQLKVVTRSKEAFEEEIKQSARNYDKFKLNENDLKTYNCLHEKYLTEGGSILEEKIAVLNNDKREIQEELERFNKRADISKRRITEELSITGEKLDTQLNDLRVSLNEKNALHTERLHELKKLQSDIESANNQEYDLNFKLRETLVKIDDLSANQRETMKERKLRENIAMLKRFFPGVKGLVHDLCHPKKEKYGLAVSTILGKNFDSVIVENLTVAQECIAFLKKQRAGTASFIPLDTIETELPTLSLPDSQDYILSINAIDYEPEYEKAMQYVCGDSIICNTLNIAKDLKWKKGIRGKLVTIEGALIHKAGLMTGGISGDANNRWDKEEYQSLMSLKDKLLIQIDELSNGQRSNSIRAREVENSVSLLNSDIANLRTQVTQQKRSLDENRLEIKYHNDLIEKEIQPKITELKKKLDDLENTKDNLVKEKEALQNNIFKEFTSKIGFTIKEYENHSGELMRQQSKELQQLQKQILTVENKLQFETDRLSTTQRRYEKAQKDLENAQVEMKSLEEQEYAIEMKIGSIESKLEEHKNHLDELQKKFVTKQSELNSSEDILEDMNSNLQVLKRERDGIKEDIEKFDLERVTALKNCKISNINIPISSETTIDDLPISSTDNEAITISNSIDINYKGLPKKYKENNTDSARKELEQKIHEVEEILNELQPNARALERYDEAEGRFEVINNETEQLKAEEKKILNQFLKIKKKRKELFEKTFDYVSDHLDAIYRELTKNPNSNVELAGGNASLTIEDEDEPFNAGIKYHATPPLKRFKDMEYLSGGEKTVAALALLFAINSYQPSPFFVLDEVDAALDITNVQRIAAYIRRHRNPDLQFIVISLKNTMFEKSDALVGVYRQQQENSSKIITLDLSNYAE
On to B2, for which the binding result in test [2] and in test [3] was “binds” throughout.
